# Laboratory results taken from the supplement of paper PMC12819154, “High-throughput peptide-centric local stability assay extends protein–ligand identification to membrane proteins, tissues and bacteria” (Nature Structural & Molecular Biology, 2025).
# Amino acid sequences for entries named in this document (tags omitted). A change or cut given only in a name is not applied to a line headed by its entry.
# UniProt Q8N5G2: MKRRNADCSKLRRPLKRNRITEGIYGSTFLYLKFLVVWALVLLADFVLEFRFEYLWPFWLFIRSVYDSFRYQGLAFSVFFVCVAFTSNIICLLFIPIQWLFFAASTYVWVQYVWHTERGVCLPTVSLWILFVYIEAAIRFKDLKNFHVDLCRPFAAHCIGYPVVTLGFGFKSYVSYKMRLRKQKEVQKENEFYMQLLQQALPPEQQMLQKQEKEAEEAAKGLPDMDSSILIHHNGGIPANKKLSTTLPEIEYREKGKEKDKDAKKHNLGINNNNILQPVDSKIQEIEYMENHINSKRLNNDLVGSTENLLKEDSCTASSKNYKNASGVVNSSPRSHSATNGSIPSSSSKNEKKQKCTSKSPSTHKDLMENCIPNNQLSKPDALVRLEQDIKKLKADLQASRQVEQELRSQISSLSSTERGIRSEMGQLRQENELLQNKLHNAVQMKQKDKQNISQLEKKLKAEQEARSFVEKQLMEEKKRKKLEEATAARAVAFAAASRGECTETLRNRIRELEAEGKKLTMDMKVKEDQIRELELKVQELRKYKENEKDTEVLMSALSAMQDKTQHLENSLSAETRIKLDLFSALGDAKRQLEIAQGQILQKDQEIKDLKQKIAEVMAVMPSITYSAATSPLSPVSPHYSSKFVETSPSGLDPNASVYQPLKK
# UniProt Q8ND25: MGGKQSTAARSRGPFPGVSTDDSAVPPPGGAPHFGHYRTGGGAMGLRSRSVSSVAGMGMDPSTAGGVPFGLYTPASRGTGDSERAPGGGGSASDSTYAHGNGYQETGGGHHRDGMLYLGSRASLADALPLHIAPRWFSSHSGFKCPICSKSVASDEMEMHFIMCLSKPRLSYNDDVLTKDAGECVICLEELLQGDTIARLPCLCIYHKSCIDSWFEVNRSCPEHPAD
# UniProt Q8N972: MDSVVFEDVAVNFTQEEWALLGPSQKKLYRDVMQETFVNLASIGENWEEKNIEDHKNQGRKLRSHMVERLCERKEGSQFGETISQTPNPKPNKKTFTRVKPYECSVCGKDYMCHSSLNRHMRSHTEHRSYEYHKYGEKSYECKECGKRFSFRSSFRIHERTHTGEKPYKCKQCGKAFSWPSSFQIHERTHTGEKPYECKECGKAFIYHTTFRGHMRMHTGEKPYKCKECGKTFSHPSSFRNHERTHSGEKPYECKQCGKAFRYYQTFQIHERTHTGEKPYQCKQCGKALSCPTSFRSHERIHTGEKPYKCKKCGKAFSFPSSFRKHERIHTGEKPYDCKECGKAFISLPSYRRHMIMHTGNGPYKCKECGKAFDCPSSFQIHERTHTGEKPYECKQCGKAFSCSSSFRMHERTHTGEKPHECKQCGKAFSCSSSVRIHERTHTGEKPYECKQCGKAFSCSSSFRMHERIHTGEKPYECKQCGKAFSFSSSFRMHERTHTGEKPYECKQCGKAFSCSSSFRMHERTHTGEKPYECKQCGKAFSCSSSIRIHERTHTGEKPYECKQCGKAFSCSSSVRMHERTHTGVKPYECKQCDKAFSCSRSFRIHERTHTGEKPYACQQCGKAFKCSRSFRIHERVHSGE
# UniProt Q8N436: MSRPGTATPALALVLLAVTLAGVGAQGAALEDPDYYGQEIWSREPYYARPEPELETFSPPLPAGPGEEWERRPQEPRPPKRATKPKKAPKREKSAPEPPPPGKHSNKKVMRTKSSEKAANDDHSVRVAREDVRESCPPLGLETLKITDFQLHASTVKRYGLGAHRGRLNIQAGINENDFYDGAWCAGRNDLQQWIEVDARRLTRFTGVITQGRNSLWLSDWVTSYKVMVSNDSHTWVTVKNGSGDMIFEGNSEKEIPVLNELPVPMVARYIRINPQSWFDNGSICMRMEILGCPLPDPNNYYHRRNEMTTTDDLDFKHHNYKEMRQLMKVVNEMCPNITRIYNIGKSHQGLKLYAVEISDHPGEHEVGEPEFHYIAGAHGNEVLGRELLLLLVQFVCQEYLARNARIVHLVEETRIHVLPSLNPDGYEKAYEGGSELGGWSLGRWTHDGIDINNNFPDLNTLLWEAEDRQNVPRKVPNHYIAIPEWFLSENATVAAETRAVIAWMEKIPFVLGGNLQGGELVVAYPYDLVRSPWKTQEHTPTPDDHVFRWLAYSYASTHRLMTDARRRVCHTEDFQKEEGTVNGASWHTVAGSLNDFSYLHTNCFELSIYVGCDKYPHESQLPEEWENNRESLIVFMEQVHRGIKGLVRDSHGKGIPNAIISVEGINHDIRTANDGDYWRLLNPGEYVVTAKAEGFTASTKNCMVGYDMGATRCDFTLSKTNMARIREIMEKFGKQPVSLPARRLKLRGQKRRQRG
# UniProt Q8NER1, whole entry: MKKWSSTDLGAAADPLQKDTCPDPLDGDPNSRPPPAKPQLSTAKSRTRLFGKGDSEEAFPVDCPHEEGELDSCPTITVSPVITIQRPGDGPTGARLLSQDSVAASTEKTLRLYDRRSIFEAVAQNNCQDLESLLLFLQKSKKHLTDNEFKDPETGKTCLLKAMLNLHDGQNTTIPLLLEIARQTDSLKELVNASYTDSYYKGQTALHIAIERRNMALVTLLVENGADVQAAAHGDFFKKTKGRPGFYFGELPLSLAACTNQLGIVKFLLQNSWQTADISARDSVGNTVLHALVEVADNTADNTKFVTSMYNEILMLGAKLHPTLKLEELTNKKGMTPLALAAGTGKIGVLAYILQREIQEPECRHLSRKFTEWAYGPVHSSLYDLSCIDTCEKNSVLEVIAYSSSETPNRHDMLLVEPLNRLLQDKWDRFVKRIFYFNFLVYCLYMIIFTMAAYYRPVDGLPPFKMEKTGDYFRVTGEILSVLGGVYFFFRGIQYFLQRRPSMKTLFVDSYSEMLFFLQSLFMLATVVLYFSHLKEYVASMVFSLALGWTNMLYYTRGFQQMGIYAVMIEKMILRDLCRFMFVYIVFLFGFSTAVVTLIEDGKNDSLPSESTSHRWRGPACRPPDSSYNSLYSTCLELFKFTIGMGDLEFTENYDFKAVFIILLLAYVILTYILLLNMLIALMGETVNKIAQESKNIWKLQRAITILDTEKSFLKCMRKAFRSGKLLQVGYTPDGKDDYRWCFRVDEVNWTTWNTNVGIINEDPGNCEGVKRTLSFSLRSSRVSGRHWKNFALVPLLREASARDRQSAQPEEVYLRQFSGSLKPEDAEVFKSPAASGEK
# UniProt Q8NHZ8, whole entry: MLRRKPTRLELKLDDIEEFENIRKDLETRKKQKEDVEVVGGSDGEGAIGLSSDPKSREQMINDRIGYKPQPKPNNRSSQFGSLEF
# UniProt Q8TBB1: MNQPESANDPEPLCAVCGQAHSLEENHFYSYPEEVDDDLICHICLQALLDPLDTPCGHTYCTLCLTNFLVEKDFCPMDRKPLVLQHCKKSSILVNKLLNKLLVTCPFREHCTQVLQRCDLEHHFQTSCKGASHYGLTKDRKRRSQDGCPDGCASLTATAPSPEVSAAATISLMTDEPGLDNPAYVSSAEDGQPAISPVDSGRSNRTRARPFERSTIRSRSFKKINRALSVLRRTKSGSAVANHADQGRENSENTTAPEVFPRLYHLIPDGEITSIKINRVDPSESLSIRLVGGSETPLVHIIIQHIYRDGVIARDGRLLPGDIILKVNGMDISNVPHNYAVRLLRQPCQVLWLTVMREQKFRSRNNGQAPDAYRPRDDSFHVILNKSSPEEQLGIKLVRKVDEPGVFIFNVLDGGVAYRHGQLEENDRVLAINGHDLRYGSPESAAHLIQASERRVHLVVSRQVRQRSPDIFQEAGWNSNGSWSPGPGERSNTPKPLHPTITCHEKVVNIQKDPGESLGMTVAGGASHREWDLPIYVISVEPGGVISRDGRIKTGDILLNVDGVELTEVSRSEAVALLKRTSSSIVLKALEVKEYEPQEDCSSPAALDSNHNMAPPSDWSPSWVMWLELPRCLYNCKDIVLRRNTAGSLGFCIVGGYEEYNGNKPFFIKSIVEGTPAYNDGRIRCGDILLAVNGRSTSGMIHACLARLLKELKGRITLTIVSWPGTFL
# UniProt Q8NFV4: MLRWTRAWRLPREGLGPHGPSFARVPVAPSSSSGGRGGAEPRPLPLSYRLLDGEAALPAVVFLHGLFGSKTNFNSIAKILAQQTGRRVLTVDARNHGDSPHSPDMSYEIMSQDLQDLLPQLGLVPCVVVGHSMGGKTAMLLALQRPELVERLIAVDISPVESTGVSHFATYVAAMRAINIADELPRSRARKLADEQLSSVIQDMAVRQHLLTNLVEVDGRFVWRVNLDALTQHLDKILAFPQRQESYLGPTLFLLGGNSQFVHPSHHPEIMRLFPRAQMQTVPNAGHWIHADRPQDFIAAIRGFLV
# UniProt Q8NCF5: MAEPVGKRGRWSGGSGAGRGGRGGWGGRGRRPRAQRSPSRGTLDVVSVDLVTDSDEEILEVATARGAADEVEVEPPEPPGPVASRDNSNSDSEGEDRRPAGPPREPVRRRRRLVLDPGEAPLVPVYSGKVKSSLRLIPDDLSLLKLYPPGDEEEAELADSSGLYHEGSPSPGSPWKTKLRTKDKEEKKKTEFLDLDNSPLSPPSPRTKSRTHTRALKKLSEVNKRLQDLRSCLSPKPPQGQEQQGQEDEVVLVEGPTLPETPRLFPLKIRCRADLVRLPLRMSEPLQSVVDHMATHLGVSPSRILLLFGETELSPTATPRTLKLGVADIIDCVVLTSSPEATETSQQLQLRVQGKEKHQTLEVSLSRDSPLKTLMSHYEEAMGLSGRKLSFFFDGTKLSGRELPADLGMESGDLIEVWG
# UniProt Q8N594: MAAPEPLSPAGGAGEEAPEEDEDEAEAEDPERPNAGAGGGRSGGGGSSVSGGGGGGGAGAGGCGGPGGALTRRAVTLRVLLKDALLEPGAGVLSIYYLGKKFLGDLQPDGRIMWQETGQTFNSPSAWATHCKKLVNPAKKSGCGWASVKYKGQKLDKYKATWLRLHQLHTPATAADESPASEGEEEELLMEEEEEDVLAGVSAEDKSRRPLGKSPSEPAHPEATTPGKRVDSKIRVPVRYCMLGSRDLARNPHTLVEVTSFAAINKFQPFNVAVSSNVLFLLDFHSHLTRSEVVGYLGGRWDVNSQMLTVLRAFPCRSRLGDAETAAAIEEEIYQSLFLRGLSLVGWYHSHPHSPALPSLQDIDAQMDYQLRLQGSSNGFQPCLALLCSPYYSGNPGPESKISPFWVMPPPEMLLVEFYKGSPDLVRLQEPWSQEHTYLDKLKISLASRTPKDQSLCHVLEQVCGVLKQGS
# UniProt Q8NHG7: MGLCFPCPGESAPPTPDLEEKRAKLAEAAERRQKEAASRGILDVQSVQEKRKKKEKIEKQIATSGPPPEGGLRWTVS
# UniProt Q8NG06: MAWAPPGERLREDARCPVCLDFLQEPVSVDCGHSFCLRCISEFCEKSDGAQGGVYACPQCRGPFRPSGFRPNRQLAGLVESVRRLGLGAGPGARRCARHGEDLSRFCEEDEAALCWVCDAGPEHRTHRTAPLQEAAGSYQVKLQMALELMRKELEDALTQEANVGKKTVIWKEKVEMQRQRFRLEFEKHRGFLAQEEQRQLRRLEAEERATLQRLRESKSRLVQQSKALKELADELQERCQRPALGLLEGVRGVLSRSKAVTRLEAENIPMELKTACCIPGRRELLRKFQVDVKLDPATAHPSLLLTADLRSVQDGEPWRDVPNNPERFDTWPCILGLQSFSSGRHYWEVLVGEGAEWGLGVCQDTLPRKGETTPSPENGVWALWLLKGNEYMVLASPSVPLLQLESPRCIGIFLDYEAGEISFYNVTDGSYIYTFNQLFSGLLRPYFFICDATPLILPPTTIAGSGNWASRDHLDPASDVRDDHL
# UniProt Q8NHH1: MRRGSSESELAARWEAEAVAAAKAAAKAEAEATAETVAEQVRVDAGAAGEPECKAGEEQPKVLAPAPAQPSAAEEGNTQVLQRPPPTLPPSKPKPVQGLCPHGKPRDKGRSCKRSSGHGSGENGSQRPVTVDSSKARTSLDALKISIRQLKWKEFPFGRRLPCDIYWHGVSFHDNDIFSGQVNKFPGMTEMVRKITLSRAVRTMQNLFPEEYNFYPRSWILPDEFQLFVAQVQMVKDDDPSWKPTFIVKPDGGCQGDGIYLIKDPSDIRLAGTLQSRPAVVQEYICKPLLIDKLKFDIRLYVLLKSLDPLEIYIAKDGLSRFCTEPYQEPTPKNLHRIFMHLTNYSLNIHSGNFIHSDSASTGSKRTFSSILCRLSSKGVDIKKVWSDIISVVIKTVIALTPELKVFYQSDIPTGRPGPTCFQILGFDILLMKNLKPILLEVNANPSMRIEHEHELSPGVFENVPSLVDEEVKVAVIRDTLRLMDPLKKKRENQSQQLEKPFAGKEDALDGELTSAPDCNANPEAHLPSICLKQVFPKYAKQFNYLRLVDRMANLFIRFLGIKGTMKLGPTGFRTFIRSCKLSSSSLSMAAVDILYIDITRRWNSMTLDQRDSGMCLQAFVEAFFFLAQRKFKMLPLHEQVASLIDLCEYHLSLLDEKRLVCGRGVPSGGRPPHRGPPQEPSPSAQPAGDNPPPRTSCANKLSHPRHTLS
# This is one part of the list. Small differences around the control level are noise.
# Compound: CN[C@@H]1C[C@H]2O[C@@](C)([C@@H]1OC)n1c3ccccc3c3c4c(c5c6ccccc6n2c5c31)C(=O)NC4 [staurosporine]
# Experiment: log2 fold change of tryptic peptide abundance, ligand vs vehicle (limited proteolysis) (log2 ratio); higher = more trypsin-susceptible (destabilized)
# Details: ligand concentration: 20 uM; sample: K562 cleared lysate; digestion: 4 min, 22 C (HT-PELSA RT4min, Orbitrap Astral)
row,Target,log2 fold change
1,"MLKL (peptide sequence: VLGLIKPLEMLQDQGKR, peptide start residue: 35) (UniProt Q8NB16)",0.297
2,"UniProt Q8N5G2 (peptide sequence: KHNLGINNNNILQPVDSK, peptide start residue: 265)",-0.526
3,"ZNRF1 (peptide sequence: ASLADALPLHIAPR, peptide start residue: 122) (UniProt Q8ND25)",-0.0535
4,"UniProt Q8N972 (peptide sequence: AFSCSSSFR, peptide start residue: 371)",0.156
5,"UniProt Q8N436 (peptide sequence: IREIMEK, peptide start residue: 726)",0.104
6,"UniProt Q8NER1 (peptide sequence: AITILDTEKSFLKCMR, peptide start residue: 703)",0.198
7,"PDZD8 (peptide sequence: VVPPPLVDK, peptide start residue: 622) (UniProt Q8NEN9)",-0.233
8,"ATL2 (peptide sequence: IYQGEELPHPK, peptide start residue: 362) (UniProt Q8NHH9)",0.444
9,"UniProt Q8N8K9 (peptide sequence: GPPGTHGTNQQVAMQMPVSTSHPNK, peptide start residue: 295)",-0.455
10,"LPCAT1 (peptide sequence: AAPASSAGASDAR, peptide start residue: 10) (UniProt Q8NF37)",0.0776
11,"CDC26 (peptide sequence: LDDIEEFENIRK, peptide start residue: 13) (UniProt Q8NHZ8)",-0.0987
12,"UniProt Q8NBE8 (peptide sequence: EIAPMMERR, peptide start residue: 490)",-0.0253
13,"GSTCD (peptide sequence: ELLELLGFKK, peptide start residue: 125) (UniProt Q8NEC7)",0.308
14,"LNX1 (peptide sequence: NNGQAPDAYRPR, peptide start residue: 365) (UniProt Q8TBB1)",-0.182
15,"ABHD11 (peptide sequence: AINIADELPR, peptide start residue: 186) (UniProt Q8NFV4)",-0.0858
16,"NFATC2IP (peptide sequence: ILLLFGETELSPTATPR, peptide start residue: 304) (UniProt Q8NCF5)",-0.199
17,"UBR7 (peptide sequence: TELKDYLKR, peptide start residue: 381) (UniProt Q8N806)",-0.719
18,"TNIP2 (peptide sequence: VASLLHQVSWR, peptide start residue: 331) (UniProt Q8NFZ5)",0.38

row,Target,log2 fold change
1,"UniProt Q8N594 (peptide sequence: SPSEPAHPEATTPGK, peptide start residue: 214)",-0.767
2,"SVIP (peptide sequence: GILDVQSVQEK, peptide start residue: 40) (UniProt Q8NHG7)",0.461
3,"DDHD1 (peptide sequence: HRYEVVTELGPEEVR, peptide start residue: 155) (UniProt Q8NEL9)",-0.221
4,"UniProt Q8NBU5 (peptide sequence: GVLLYGPPGCGK, peptide start residue: 128)",-0.153
5,"APPL2 (peptide sequence: ANFELTSVTQFAAHQENKR, peptide start residue: 556) (UniProt Q8NEU8)",-0.403
6,"ZFP62 (peptide sequence: SFNYTSLLSQHR, peptide start residue: 625) (UniProt Q8NB50)",-0.315
7,"JMY (peptide sequence: KHALKEEMQSLR, peptide start residue: 503) (UniProt Q8N9B5)",0.49
8,"CRACR2B (peptide sequence: TQLEGAQEQIR, peptide start residue: 293) (UniProt Q8N4Y2)",0.399
9,"UniProt Q8N954 (peptide sequence: NALGCENKGFALLQK, peptide start residue: 91)",-0.231
10,"TRIM58 (peptide sequence: LDPATAHPSLLLTADLR, peptide start residue: 295) (UniProt Q8NG06)",0.578
11,"ZNF655 (peptide sequence: SCSPSSGIIQHK, peptide start residue: 283) (UniProt Q8N720)",-0.979
12,"TTLL11 (peptide sequence: WEAEAVAAAK, peptide start residue: 104) (UniProt Q8NHH1)",-0.0803
13,"UniProt Q8NHM5 (peptide sequence: ESMLIDAPR, peptide start residue: 387)",0.399
14,"ASCC1 (peptide sequence: YNLYTAEGK, peptide start residue: 323) (UniProt Q8N9N2)",-0.113
15,"CEP120 (peptide sequence: DGPHGSVLEEGLDDYLTR, peptide start residue: 930) (UniProt Q8N960)",-0.696
16,"AKR7L (peptide sequence: SQLETSLKR, peptide start residue: 121) (UniProt Q8NHP1)",0.26
17,"UniProt Q8N8R7 (peptide sequence: TGMTLSGNNTICFHHVK, peptide start residue: 46)",-0.249
18,"TOR1AIP2 (peptide sequence: LLAPEAGSHPQQTQK, peptide start residue: 181) (UniProt Q8NFQ8)",-0.0677

# 10 successive records from above, for reference:
row,Target,log2 fold change
4,"UniProt Q8NBU5 (peptide sequence: GVLLYGPPGCGK, peptide start residue: 128)",-0.153
5,"APPL2 (peptide sequence: ANFELTSVTQFAAHQENKR, peptide start residue: 556) (UniProt Q8NEU8)",-0.403
6,"ZFP62 (peptide sequence: SFNYTSLLSQHR, peptide start residue: 625) (UniProt Q8NB50)",-0.315
7,"JMY (peptide sequence: KHALKEEMQSLR, peptide start residue: 503) (UniProt Q8N9B5)",0.49
8,"CRACR2B (peptide sequence: TQLEGAQEQIR, peptide start residue: 293) (UniProt Q8N4Y2)",0.399
9,"UniProt Q8N954 (peptide sequence: NALGCENKGFALLQK, peptide start residue: 91)",-0.231
10,"TRIM58 (peptide sequence: LDPATAHPSLLLTADLR, peptide start residue: 295) (UniProt Q8NG06)",0.578
11,"ZNF655 (peptide sequence: SCSPSSGIIQHK, peptide start residue: 283) (UniProt Q8N720)",-0.979
12,"TTLL11 (peptide sequence: WEAEAVAAAK, peptide start residue: 104) (UniProt Q8NHH1)",-0.0803
13,"UniProt Q8NHM5 (peptide sequence: ESMLIDAPR, peptide start residue: 387)",0.399
